# Experimental data: the supplement of paper PMC8728848
# This is one part of the list.
# Assays:
# Assay in all cases: glycan array binding signal (z-score within array); higher = stronger binding
# Conditions in all cases: glycan notation: IUPAC condensed, linker removed
# [1] = molecular target: Gal3S(b1-4)[Fuc(a1-3)]Glc
# Method in brief: (§1)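 The binding signal is a Z-score computed within each array. Data were drawn from 3228 arrays in the Consortium for Functional Glycomics database, restricted to those with a known protein sequence. Scores were averaged over arrays of the same protein sequence at different concentrations or buffers, and over linkers, and negative values can be taken as non-binding.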
# [2] = molecular target: Gal3S(b1-4)[Fuc(a1-3)]Glc6S
# Method in brief: as §1
# Gal3S4S(b1-4)GlcNAc = molecular target: Gal3S4S(b1-4)GlcNAc
# Method in brief: as §1
# Gal3S6S(b1-4)GlcNAc = molecular target: Gal3S6S(b1-4)GlcNAc
# Method in brief: as §1
# Gal3S6S(b1-4)GlcNAc6S = molecular target: Gal3S6S(b1-4)GlcNAc6S
# Method in brief: as §1
# Gal4S(b1-4)GlcNAc = molecular target: Gal4S(b1-4)GlcNAc
# Method in brief: as §1
# Gal4S6S(b1-4)GlcNAc = molecular target: Gal4S6S(b1-4)GlcNAc
# Method in brief: as §1
# Gal6S(b1-4)Glc = molecular target: Gal6S(b1-4)Glc
# Method in brief: as §1
# Gal6S(b1-4)Glc6S = molecular target: Gal6S(b1-4)Glc6S
# Method in brief: as §1
# Gal6S(b1-4)GlcNAc = molecular target: Gal6S(b1-4)GlcNAc
# Method in brief: as §1
# Gal6S(b1-4)GlcNAc6S = molecular target: Gal6S(b1-4)GlcNAc6S
# Method in brief: as §1
# GalNAc(a1-3)Gal = molecular target: GalNAc(a1-3)Gal
# Method in brief: as §1
# GalNAc(a1-3)GalNAc = molecular target: GalNAc(a1-3)GalNAc
# Method in brief: as §1
# [3] = molecular target: GalNAc(a1-3)GalNAc(a1-3)Gal(a1-4)Gal(b1-4)GlcNAc
# Method in brief: as §1
# GalNAc(b1-3)Gal = molecular target: GalNAc(b1-3)Gal
# Method in brief: as §1
# [4] = molecular target: GalNAc(b1-3)Gal(a1-4)Gal(b1-4)GlcNAc
# Method in brief: as §1
# [5] = molecular target: GalNAc(b1-3)Gal(a1-4)Gal(b1-4)GlcNAc(b1-3)Gal(b1-4)Glc
# Method in brief: as §1
# [6] = molecular target: GalNAc(b1-3)Gal(a1-6)Gal(b1-4)Glc
# Method in brief: as §1
# GalNAc(b1-3)GalNAc = molecular target: GalNAc(b1-3)GalNAc
# Method in brief: as §1
# GalNAc(b1-4)GlcNAc = molecular target: GalNAc(b1-4)GlcNAc
# Method in brief: as §1
# [7] = molecular target: GalNAc(b1-4)GlcNAc(b1-2)Man(a1-3)[GalNAc(b1-4)GlcNAc(b1-2)Man(a1-6)]Man(b1-4)GlcNAc(b1-4)GlcNAc
# Method in brief: as §1
# Glc(a1-4)Glc = molecular target: Glc(a1-4)Glc
# Method in brief: as §1
# Glc(a1-6)Glc(a1-6)Glc = molecular target: Glc(a1-6)Glc(a1-6)Glc
# Method in brief: as §1
# Glc(b1-4)Glc = molecular target: Glc(b1-4)Glc
# Method in brief: as §1
# Glc(b1-6)Glc = molecular target: Glc(b1-6)Glc
# Method in brief: as §1
# GlcA(b1-3)Gal = molecular target: GlcA(b1-3)Gal
# Method in brief: as §1
# GlcA(b1-3)GlcNAc = molecular target: GlcA(b1-3)GlcNAc
# Method in brief: as §1
# GlcA(b1-6)Gal = molecular target: GlcA(b1-6)Gal
# Method in brief: as §1
# [8] = molecular target: GlcNAc(a1-3)Gal(b1-4)GlcNAc
# Method in brief: as §1
# [9] = molecular target: GlcNAc(a1-4)Gal(b1-3)GlcNAc
# Method in brief: as §1
# [10] = molecular target: GlcNAc(a1-4)Gal(b1-4)GalNAc
# Method in brief: as §1
# [11] = molecular target: GlcNAc(a1-4)Gal(b1-4)GlcNAc
# Method in brief: as §1
# [12] = molecular target: GlcNAc(a1-4)Gal(b1-4)GlcNAc(b1-3)Gal(b1-4)Glc
# Method in brief: as §1
# [13] = molecular target: GlcNAc(a1-4)Gal(b1-4)GlcNAc(b1-3)Gal(b1-4)GlcNAc
# Method in brief: as §1
# [14] = molecular target: GlcNAc(a1-4)Gal(b1-4)GlcNAc(b1-3)Gal(b1-4)GlcNAc(b1-3)Gal(b1-4)GlcNAc
# Method in brief: as §1
# [15] = molecular target: GlcNAc(a1-4)Gal(b1-4)GlcNAc(b1-3)Gal(b1-4)[Fuc(a1-3)]GlcNAc(b1-3)Gal(b1-4)[Fuc(a1-3)]GlcNAc
# Method in brief: as §1
# [16] = molecular target: GlcNAc(a1-6)Gal(b1-4)GlcNAc
# Method in brief: as §1
# [17] = molecular target: GlcNAc(b1-2)Gal(b1-3)GalNAc
# Method in brief: as §1
# [18] = molecular target: GlcNAc(b1-2)Man(a1-3)[GlcNAc(b1-2)Man(a1-6)]Man(b1-4)GlcNAc(b1-4)GlcNAc
# Method in brief: as §1
# [19] = molecular target: GlcNAc(b1-2)Man(a1-3)[GlcNAc(b1-2)Man(a1-6)]Man(b1-4)GlcNAc(b1-4)[Fuc(a1-6)]GlcNAc
# Method in brief: as §1
# [20] = molecular target: GlcNAc(b1-2)[GlcNAc(b1-4)]Man(a1-3)[GlcNAc(b1-2)Man(a1-6)]Man(b1-4)GlcNAc(b1-4)GlcNAc
# Method in brief: as §1
# GlcNAc(b1-3)Gal = molecular target: GlcNAc(b1-3)Gal
# Method in brief: as §1
# [21] = molecular target: GlcNAc(b1-3)Gal(b1-3)GalNAc
# Method in brief: as §1
# GlcNAc(b1-3)Gal(b1-4)Glc = molecular target: GlcNAc(b1-3)Gal(b1-4)Glc
# Method in brief: as §1
# [22] = molecular target: GlcNAc(b1-3)Gal(b1-4)GlcNAc
# Method in brief: as §1
binder,measurement,setting,value
"SspB (Streptococcus gordonii), P16952 (protein) MKNKKEVYGFRKSKVAKTLCGAVLGTALIAFADKAVFADEVTETTSTSTVEVATTGNPATNLPEAQGEMSQVAKESQAKAGSKESALPVEVSSADLDKAVADAKSAGVKVVQDETKDKGTATTATDNAQKQDEIKSDYAKQAEEIKTTTEAYKKEVAAHQAETDKINAENKAADDKYQKDLKSHQEEVEKINTANATAKAEYEAKLAQYQKDLATVKKANEDSQQDYQNKLSAYQTELARVQKANAEAKEAYEKAVKENTAKNEALKVENEAIKQRNETAKATYEAAMKQYEADLAAIKKANEDNDADYQAKLAAYQTELARVQKANAEAKEAYDKAVKENTAKNTAIQAENEAIKQRNETAKATYDAAVKKYEADLAAVKQANATNEADYQAKLAAYQTELARVQKANADAKATYEKAVEDNKAKNAAIKAENEEIKQRNAVAKTDYEAKLAKYEADLAKYKKEFAAYTAALAEAESKKKQDGYLSEPRSQSLNFKSEPNAIRTIDSSVHQYGQQELDALVKSWGISPTNPDRKKSRAYSYFNAINSNNTYAKLVLEKDKPVDVTYTGLKNSSFNGKKISKVVYTYTLKETGFNDGTKMTMFASSDPTVTAWYNDYFTSTNINVKVKFYDEEGQLMNLTGGLVNFSSLNRGNGSGAIDKDAIESVRNFNGRYIPISGSSIKIHENNSAYADSSNAEKSLGARWNTSEWDTTSSPNNWYGAIVGEITQSEISFNMASSKSGNIWFAFNSNINAIGVPTKPVAPTAPTQPMYETEKPLEPAPVAPSYENEPTPPVKTPDQPEPSKPEEPTYETEKPLEPAPVAPSYENEPTPPVKTPDQPEPSKPEEPNYETEKPLEPAPVAPSYENEPTPPVKIPDQPEPSKPEEPTYDPLPTPPLAPTPKQLPTPPVVPTVHFHYSSLLAQPQINKEIKNEDGVDIDRTLVAKQSIVKFELKTEALTAGRPKTTSFVLVDPLPTGYKFDLDATKAASTGFDTTYDEASHTVTFKATDETLATYNADLTKPVETLHPTVVGRVLNDGATYTNNFTLTVNDAYGIKSNVVRVTTPGKPNDPDNPNNNYIKPTKVNKNKEGLNIDGKEVLAGSTNYYELTWDLDQYKGDKSSKEAIQNGFYYVDDYPEEALDVRPDLVKVADEKGNQVSGVSVQQYDSLEAAPKKVQDLLKKANITVKGAFQLFSADNPEEFYKQYVATGTSLVITDPMTVKSEFGKTGGKYENKAYQIDFGNGYATEVVVNNVPKITPKKDVTVSLDPTSENLDGQTVQLYQTFNYRLIGGLIPQNHSEELEDYSFVDDYDQAGDQYTGNYKTFSSLNLTMKDGSVIKAGTDLTSQTTAETDATNGIVTVRFKEDFLQKISLDSPFQAETYLQMRRIAIGTFENTYVNTVNKVAYASNTVRTTTPIPRTPDKPTPIPTPKPKDPDKPETPKEPKVPSPKVEDPSAPIPVSVGKELTTLPKTGTNDATYMPYLGLAALVGFLGLGLAKRKED",glycan array binding signal (z-score),[1],0.344
same,glycan array binding signal (z-score),[2],-0.011
same,glycan array binding signal (z-score),Gal3S4S(b1-4)GlcNAc,-0.545
same,glycan array binding signal (z-score),Gal3S6S(b1-4)GlcNAc,0.347
same,glycan array binding signal (z-score),Gal3S6S(b1-4)GlcNAc6S,-1.04
same,glycan array binding signal (z-score),Gal4S(b1-4)GlcNAc,-0.002
same,glycan array binding signal (z-score),Gal4S6S(b1-4)GlcNAc,-2.25
same,glycan array binding signal (z-score),Gal6S(b1-4)Glc,0.165
same,glycan array binding signal (z-score),Gal6S(b1-4)Glc6S,0.321
same,glycan array binding signal (z-score),Gal6S(b1-4)GlcNAc,1.27
same,glycan array binding signal (z-score),Gal6S(b1-4)GlcNAc6S,-1.28
same,glycan array binding signal (z-score),GalNAc(a1-3)Gal,0.111
same,glycan array binding signal (z-score),GalNAc(a1-3)GalNAc,-0.125
same,glycan array binding signal (z-score),[3],0.985
same,glycan array binding signal (z-score),GalNAc(b1-3)Gal,-0.556
same,glycan array binding signal (z-score),[4],0.073
same,glycan array binding signal (z-score),[5],-1.02
same,glycan array binding signal (z-score),[6],-0.859
same,glycan array binding signal (z-score),GalNAc(b1-3)GalNAc,-1.34
same,glycan array binding signal (z-score),GalNAc(b1-4)GlcNAc,0.298
same,glycan array binding signal (z-score),[7],1.48
same,glycan array binding signal (z-score),Glc(a1-4)Glc,-1.18
same,glycan array binding signal (z-score),Glc(a1-6)Glc(a1-6)Glc,-0.494
same,glycan array binding signal (z-score),Glc(b1-4)Glc,0.618
same,glycan array binding signal (z-score),Glc(b1-6)Glc,-1.1
same,glycan array binding signal (z-score),GlcA(b1-3)Gal,-0.328
same,glycan array binding signal (z-score),GlcA(b1-3)GlcNAc,0.873
same,glycan array binding signal (z-score),GlcA(b1-6)Gal,-0.658
same,glycan array binding signal (z-score),[8],-1.09
same,glycan array binding signal (z-score),[9],0.545
same,glycan array binding signal (z-score),[10],-0.557
same,glycan array binding signal (z-score),[11],0.474
same,glycan array binding signal (z-score),[12],0.925
same,glycan array binding signal (z-score),[13],-0.973
same,glycan array binding signal (z-score),[14],-0.449
same,glycan array binding signal (z-score),[15],3.03
same,glycan array binding signal (z-score),[16],-0.466
same,glycan array binding signal (z-score),[17],0.091
same,glycan array binding signal (z-score),[18],-0.276
same,glycan array binding signal (z-score),[19],-0.155
same,glycan array binding signal (z-score),[20],0.168
same,glycan array binding signal (z-score),GlcNAc(b1-3)Gal,-1.18
same,glycan array binding signal (z-score),[21],-0.668
same,glycan array binding signal (z-score),GlcNAc(b1-3)Gal(b1-4)Glc,0.075
same,glycan array binding signal (z-score),[22],-0.304
